{
  "source": "PubChem BioAssay AID493014",
  "about": "(National Center for Advancing Translational Sciences (NCATS), 2011)",
  "test": "qHTS Assay to Find Inhibitors of Chronic Active B-Cell Receptor Signaling",
  "settings": "ABC-DLBCL IkBa-CBG/CBR reporter, luminescence ratio (green luciferase fused to IkBa over red control in TMD8 lymphoma cells), 4 h",
  "procedure,_shortened": "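Concentration-response series (up to 46 uM) were applied to TMD8 dual-reporter cells for 4 h at 37C with doxycycline. Green/red ratio, after filter-overlap correction, defined %Activity; red signal alone was normalised to basal cells and zero luminescence.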",
  "key": {"[1]": {"settings": "measured here: CBR red luminescence, cell number"}, "[2]": {"settings": "measured here: IkBa-CBG green luminescence"}},
  "note": "Several values for one entry are separate records, joined by “and”; a condition that tells them apart may be missing. Equal entries are not always repeated. The list shows a part of the results. These are further read-outs of the screen, such as a control signal, another cell line or another target. No call is given for them. The list favours compounds with an active or inconclusive main result. The note in brackets gives the kind of curve behind each potency; many fits are weak.",
  "data": [
    {"compound": "COc1ccc(CCNC(=O)CCCc2ccccc2)cc1OC", "values": [
      {"measurement": "AC50", "setting": "[1]", "result": "35.5 µM [falling, single point]"},
      {"measurement": "AC50", "setting": "[2]", "result": "35.5 µM [rising, single point]"}
    ]},
    {"compound": "CC(=O)N1N=C(C)CC1c1ccc(OCc2ccccc2)cc1", "note": "(stereo not drawn)", "values": [
      {"measurement": "AC50", "setting": "[1]", "result": "6.51 µM [rising, partial curve, poor fit]"}
    ]},
    {"compound": "Cc1ccc2nc3c(c(N)c2c1)CCN3c1ccccc1", "values": [
      {"measurement": "AC50", "setting": "[1]", "result": "5.62 µM [rising, partial curve, poor fit]"}
    ]},
    {"compound": "O=C1/C(=C/c2ccncc2)CCC/C1=C\\c1ccncc1", "values": [
      {"measurement": "AC50", "setting": "[1]", "result": "12.6 µM [falling, partial curve, poor fit]"}
    ]},
    {"compound": "CCOC(=O)C1=C(C)NC2=C(C(=O)CCC2)C1c1ccc(N(C)C)cc1", "note": "(stereo not drawn)", "values": [
      {"measurement": "AC50", "setting": "[1]", "result": "13 µM [rising, single point]"}
    ]},
    {"compound": "CCc1ccc(/C=N/Nc2ncnc3nc[nH]c23)cc1", "values": [
      {"measurement": "AC50", "setting": "[1]", "result": "35.5 µM [falling, single point]"}
    ]},
    {"compound": "COCCCNCCCCOc1ccc(Br)cc1Cl", "values": [
      {"measurement": "AC50", "setting": "[1]", "result": "18.4 µM [falling, partial curve, poor fit]"}
    ]},
    {"compound": "Cc1cc(C)c2cc(C(=O)Nc3ccc(C)c(F)c3)[nH]c2c1", "values": [
      {"measurement": "AC50", "setting": "[1]", "result": "0.794 µM [rising, full curve, poor fit]"}
    ]},
    {"compound": "O=C(O)c1cccc(S(=O)(=O)N2CCOCC2)c1", "values": [
      {"measurement": "AC50", "setting": "[1]", "result": "4.11 µM [rising, partial curve, poor fit]"}
    ]},
    {"compound": "CCc1ccc(N=C2NC(=O)/C(=C/c3ccc(OCC(=O)O)c(OC)c3)S2)cc1", "values": [
      {"measurement": "AC50", "setting": "[1]", "result": "5.62 µM [rising, partial curve]"}
    ]},
    {"compound": "CCOc1cc(C(=O)N(C)CC(=O)Nc2cccc3ccccc23)ccc1OC", "values": [
      {"measurement": "AC50", "setting": "[2]", "result": "18.4 µM [falling, partial curve, poor fit]"}
    ]},
    {"compound": "Cc1ccccc1SCc1noc(C(=O)NC(C)C)c1C(=O)O", "values": [
      {"measurement": "AC50", "setting": "[1]", "result": "12.6 µM [falling, partial curve]"}
    ]},
    {"compound": "c1ccc2c(c1)CCN(c1nc3ccccc3n3cnnc13)C2", "values": [
      {"measurement": "AC50", "setting": "[1]", "result": "20.6 µM [falling, single point]"}
    ]},
    {"compound": "O=C(CC1CCCC1)Nc1nc2ccccc2[nH]1", "values": [
      {"measurement": "AC50", "setting": "[1]", "result": "10 µM [falling, partial curve]"}
    ]},
    {"compound": "O=C(c1cc2c(s1)CCCC2)N1CCN(Cc2ccc3c(c2)OCO3)CC1", "values": [
      {"measurement": "AC50", "setting": "[1]", "result": "35.5 µM [falling, partial curve, poor fit]"}
    ]},
    {"compound": "CC(C)(C)c1cc2cccnc2n1Cc1cccc(Cl)c1", "values": [
      {"measurement": "AC50", "setting": "[1]", "result": "29.1 µM [falling, single point]"}
    ]},
    {"compound": "COc1ccc(C(=O)NCC(c2ccco2)N2CCc3ccccc32)c(OC)c1", "note": "(stereo not drawn)", "values": [
      {"measurement": "AC50", "setting": "[1]", "result": "18.4 µM [falling, partial curve]"},
      {"measurement": "AC50", "setting": "[2]", "result": "18.4 µM [rising, partial curve, poor fit]"}
    ]},
    {"compound": "COc1ccc(C)cc1CN1C(=O)c2ccccc2C1=O", "values": [
      {"measurement": "AC50", "setting": "[1]", "result": "35.5 µM [falling, partial curve, poor fit]"}
    ]},
    {"compound": "O=C(Nc1ccc2oc(=O)ccc2c1)c1ccc(-c2ccccc2[N+](=O)[O-])o1", "values": [
      {"measurement": "AC50", "setting": "[1]", "result": "10 µM [rising, partial curve]"}
    ]},
    {"compound": "O=C1CSC(c2cccc(Cl)c2Cl)N1c1ccccn1", "note": "(stereo not drawn)", "values": [
      {"measurement": "AC50", "setting": "[1]", "result": "2.31 µM [rising, single point]"}
    ]},
    {"compound": "Oc1[nH]c2ccccc2c1C=Nc1ccc2c(c1)OCCO2", "values": [
      {"measurement": "AC50", "setting": "[1]", "result": "22.4 µM [falling, partial curve, poor fit]"}
    ]},
    {"compound": "CC(C)OCCCNC(=O)c1sc(=S)n(C)c1N", "values": [
      {"measurement": "AC50", "setting": "[1]", "result": "3.16 µM [rising, single point]"}
    ]},
    {"compound": "COc1ccc(C(=O)O/N=C(/c2cccs2)C(C)(C)C)cc1", "values": [
      {"measurement": "AC50", "setting": "[1]", "result": "3.55 µM [rising, full curve, poor fit]"}
    ]},
    {"compound": "O=C(Nc1ccc(Oc2ccc(NC(=O)Nc3ccc([N+](=O)[O-])cc3)cc2)cc1)Nc1ccc([N+](=O)[O-])cc1", "values": [
      {"measurement": "AC50", "setting": "[1]", "result": "3.98 µM [rising, partial curve]"}
    ]},
    {"compound": "Oc1c(C=C2N=c3ccccc3=N2)sc(=S)n1-c1ccc(F)cc1", "values": [
      {"measurement": "AC50", "setting": "[1]", "result": "7.94 µM [falling, partial curve] and 16.4 µM [falling, single point]"}
    ]},
    {"compound": "O=C(CS(=O)(=O)c1ccccc1)c1cc2ccccc2oc1=O", "values": [
      {"measurement": "AC50", "setting": "[1]", "result": "35.5 µM [falling, single point]"}
    ]},
    {"compound": "Cc1cc(C)nc(NNC2=CC(=[N+]3CCCC3)CCC2)n1", "values": [
      {"measurement": "AC50", "setting": "[1]", "result": "0.224 µM [falling, full curve, poor fit]"}
    ]},
    {"compound": "CC(C)(C)c1[nH]nc2c1C(c1ccncc1)C(C#N)=C(N)O2", "note": "(stereo not drawn)", "values": [
      {"measurement": "AC50", "setting": "[1]", "result": "15.8 µM [falling, partial curve, poor fit]"}
    ]},
    {"compound": "O=C(CSc1ccccn1)N1CCN(c2cccc(Cl)c2)CC1", "values": [
      {"measurement": "AC50", "setting": "[1]", "result": "23.1 µM [rising, single point]"}
    ]},
    {"compound": "COc1ccc(NC(=O)CCC(=O)OCc2ccc(C(=O)Oc3ccc(Cl)cc3)cc2)cc1", "values": [
      {"measurement": "AC50", "setting": "[1]", "result": "11.2 µM [rising, partial curve]"}
    ]},
    {"compound": "Cc1nn(-c2ccccc2)c(N)c1N=Nc1ccccc1", "values": [
      {"measurement": "AC50", "setting": "[1]", "result": "1.46 µM [rising, partial curve]"}
    ]},
    {"compound": "Cc1cccc(NS(=O)(=O)c2ccc(C3CCCCC3)cc2)n1", "values": [
      {"measurement": "AC50", "setting": "[2]", "result": "8.2 µM [falling, partial curve, poor fit]"}
    ]},
    {"compound": "COC(=O)c1cc(OC)c(OC)c(OC)c1[N+](=O)[O-]", "values": [
      {"measurement": "AC50", "setting": "[1]", "result": "35.5 µM [falling, single point]"}
    ]},
    {"compound": "C=CCOc1ccc(Br)cc1/C=C1/SC(=Nc2ccc(C(=O)O)cc2)NC1=O", "values": [
      {"measurement": "AC50", "setting": "[1]", "result": "2.24 µM [falling, full curve, poor fit]"}
    ]},
    {"compound": "COC(=O)CSc1nc(NC(C)(C)C)nc(N(C)C)n1", "values": [
      {"measurement": "AC50", "setting": "[1]", "result": "6.31 µM [rising, full curve, poor fit]"}
    ]},
    {"compound": "COc1ccc(C2c3[nH]c4ccccc4c3CCN2CCCn2cccn2)c(C)c1C", "note": "(stereo not drawn)", "values": [
      {"measurement": "AC50", "setting": "[1]", "result": "35.5 µM [falling, single point]"}
    ]},
    {"compound": "O=C(Nc1cccnc1)c1cc(-c2cc(Cl)ccc2O)n[nH]1", "values": [
      {"measurement": "AC50", "setting": "[1]", "result": "8.91 µM [falling, partial curve, poor fit]"}
    ]},
    {"compound": "Oc1ccc(Br)cc1-c1cc(-c2ccc(Cl)cc2)n[nH]1", "values": [
      {"measurement": "AC50", "setting": "[1]", "result": "29.1 µM [falling, single point]"}
    ]},
    {"compound": "CCC(=O)NCCc1nc2cc(NC(=O)Nc3ccccc3)ccc2n1C", "values": [
      {"measurement": "AC50", "setting": "[1]", "result": "10 µM [falling, partial curve]"}
    ]},
    {"compound": "CCc1c(C)[nH]c2ccc(C)cc2c1=O", "values": [
      {"measurement": "AC50", "setting": "[1]", "result": "9.2 µM [rising, partial curve]"}
    ]},
    {"compound": "O=C(CSc1nnc(C2CC2)n1C1CC1)c1cccs1", "values": [
      {"measurement": "AC50", "setting": "[1]", "result": "0.82 µM [rising, full curve, poor fit]"}
    ]}
  ]
}
